Results published in PMC12373997.

Sequences of proteins named here, by UniProt entry; tags and fusion partners are left off.
UniProt Q99871: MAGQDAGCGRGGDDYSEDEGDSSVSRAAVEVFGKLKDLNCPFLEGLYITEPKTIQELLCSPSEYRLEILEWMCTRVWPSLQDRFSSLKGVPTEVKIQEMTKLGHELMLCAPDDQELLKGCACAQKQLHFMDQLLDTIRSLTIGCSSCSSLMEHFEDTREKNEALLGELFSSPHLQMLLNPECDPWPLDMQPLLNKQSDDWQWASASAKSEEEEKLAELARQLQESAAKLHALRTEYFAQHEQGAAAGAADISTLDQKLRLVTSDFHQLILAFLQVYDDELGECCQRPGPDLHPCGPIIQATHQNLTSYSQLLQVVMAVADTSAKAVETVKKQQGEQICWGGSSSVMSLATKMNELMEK

T1: H. sapiens HAUS8-HIS8, N-clamp fragment (H. sapiens) (UniProt Q9BT25)
T1 sequence: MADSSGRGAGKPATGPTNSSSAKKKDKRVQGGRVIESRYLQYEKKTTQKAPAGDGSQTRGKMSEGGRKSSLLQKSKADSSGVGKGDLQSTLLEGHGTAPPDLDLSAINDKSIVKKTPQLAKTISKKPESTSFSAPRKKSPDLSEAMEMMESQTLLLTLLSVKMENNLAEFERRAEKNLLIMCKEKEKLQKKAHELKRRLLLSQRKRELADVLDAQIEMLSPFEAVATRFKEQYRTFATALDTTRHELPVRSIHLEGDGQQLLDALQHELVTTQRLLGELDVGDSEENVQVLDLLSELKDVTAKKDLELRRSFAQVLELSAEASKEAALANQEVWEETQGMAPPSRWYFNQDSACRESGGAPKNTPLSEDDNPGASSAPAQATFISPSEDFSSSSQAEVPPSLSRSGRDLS

T2: D. melanogaster Dgt4 (HAUS8 ortholog)-HIS8, N-clamp fragment (D. melanogaster) (UniProt Q9W4M8)
T2 sequence: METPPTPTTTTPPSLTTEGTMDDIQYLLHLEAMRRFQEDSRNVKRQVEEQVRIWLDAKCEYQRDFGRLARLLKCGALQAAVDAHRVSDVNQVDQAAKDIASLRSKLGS

T3: D. melanogaster Msd5 (HAUS7 ortholog)-EGFP-HIS8, N-clamp fragment (D. melanogaster) (UniProt Q9W0G6)
T3 sequence: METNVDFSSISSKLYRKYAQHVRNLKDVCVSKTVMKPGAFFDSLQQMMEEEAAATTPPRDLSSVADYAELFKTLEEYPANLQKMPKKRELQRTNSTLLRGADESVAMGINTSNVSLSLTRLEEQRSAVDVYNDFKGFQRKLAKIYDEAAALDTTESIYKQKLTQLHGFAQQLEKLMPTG

B1: H. sapiens HAUS2, N-clamp fragment (domain or fragment, UniProt Q9NVX0 1-235)
chain: MAAANPWDPASAPNGAGLVLGHFIASGMVNQEMLNMSKKTVSCFVNFTRLQQITNIQAEIYQKNLEIELLKLEKDTADVVHPFFLAQKCHTLQSMNNHLEAVLKEKRSLRQRLLKPMCQENLPIEAVYHRYMVHLLELAVTFIERLETHLETIRNIPHLAANLKKMNQALAKMDILVTETEELAENILKWRKQQNEVSSCIPKILAEESYLYKHDIIMPPLPFTSKVHVQTINAK
B2: H. sapiens HAUS6, N-clamp fragment (domain or fragment, UniProt Q7Z4H7 1-432)
chain: MSSASVTAFEKEHLWMYLQALGFEPGPATIACGKIVSHTHLGVNMFDKLNRDAFHIISYFLFQVLDQSLTKEVFKFCWPPFDQKSDTEFRKHCCEWIKRISGECGSSFPQVVGSLFLSPGGPKFIHLMYHFARFVAMKYIKSNSKNSSHHFVETFNIKPQDLHKCIARCHFARSRFLQILQRQDCVTQKYQENAQLSVKQVRNLRSECIGLENQIKKMEPYDDHSNMEEKIQKVRSLWASVNETLMFLEKEREVVSSVLSLVNQYALDGTNVAINIPRLLLDKIEKQMFQLHIGNVYEAGKLNLLTVIQLLNEVLKVMKYERCQADQARLTVDLHYLEKETKFQKERLSDLKHMRYRIKDDLTTIRHSVVEKQGEWHKKWKEFLGLSPFSLIKGWTPSVDLLPPMSPLSFDPASEEVYAKSILCQYPASLPD
B3: D. melanogaster Dgt6 (HAUS6 ortholog), N-clamp fragment with the CH domain (domain or fragment, UniProt Q9VAP2 1-280)
chain: MDRTIIAPWKAEEKEQSEKLHRKLQGLALVHPLPDELRKLIAWDMFLKPNQVAFVHVMHYLFRLLDPAEFKRRFFWPITDKKSEANFRSSTVEYLKHLNEKHQLHWANIKSYLVVMPGGMRFINFLLEFVGFVIQELIKQREKSLGLEAGTPNVSAKVMARQNAVMKEYASSYVVNLEENTALLRDKTQKIRRLMADLSADMGVPEEQLADDGFLDEFEATAALGVERVITQPTERKFDLEASLCGLKEAIDLFQVKQAENNQSKEAVEKALRGMRVLFD
B4: D. melanogaster Msd5 (HAUS7 ortholog)-EGFP-HIS8, N-clamp fragment (domain or fragment, UniProt Q9W0G6 1-179)
chain: T3 sequence

What was measured:
Experiment in all cases: co-expression and co-purification (His-affinity, SEC, anion exchange), checked by mass spectrometry and negative stain EM; four subunits co-expressed in E. coli; Ni-NTA capture through HAUS7-EGFP-HIS8 and HAUS8-HIS8 from the lysate, Superose 6 SEC, Capto HiRes Q
[1] = biological target: H. sapiens HAUS7-EGFP-HIS8, N-clamp fragment (H. sapiens) (UniProt Q99871)
[2] = biological target: T1, H. sapiens HAUS8-HIS8, N-clamp fragment (H. sapiens)
[3] = biological target: T2, D. melanogaster Dgt4 (HAUS8 ortholog)-HIS8, N-clamp fragment (D. melanogaster)
[4] = biological target: T3, D. melanogaster Msd5 (HAUS7 ortholog)-EGFP-HIS8, N-clamp fragment (D. melanogaster)

Row | Binder | binding [1] | binding [2] | binding [3] | binding [4]
1 | B1 | binds | binds | – | –
2 | B2 | binds | binds | – | –
3 | B3 | – | – | binds | binds
4 | B4 | – | – | binds | –

These are yes or no findings as the source states them, for the method shown. Binding seen in cells or lysates may run through a third protein. Here binding means that the protein was enriched with, or labelled near, the bait; the list need not be complete. For some of these results: Where a sequence is shown, tags or fusion partners need not be part of it.
